Some of the results follow. Small differences around the control level are noise.
These targets were tested with CN[C@@H]1C[C@H]2O[C@@](C)([C@@H]1OC)n1c3ccccc3c3c4c(c5c6ccccc6n2c5c31)C(=O)NC4 [staurosporine] (assay: log2 fold change of tryptic peptide abundance, ligand vs vehicle (limited proteolysis) (log2 ratio); higher = more trypsin-susceptible (destabilized)). Conditions: ligand concentration: 20 uM; sample: K562 cleared lysate; digestion: 4 min, 22 C (HT-PELSA RT4min, Orbitrap Astral).

Amino acid sequences for entries named in this document (tags omitted). A change or cut given only in a name is not applied to a line headed by its entry.
UniProt O60921: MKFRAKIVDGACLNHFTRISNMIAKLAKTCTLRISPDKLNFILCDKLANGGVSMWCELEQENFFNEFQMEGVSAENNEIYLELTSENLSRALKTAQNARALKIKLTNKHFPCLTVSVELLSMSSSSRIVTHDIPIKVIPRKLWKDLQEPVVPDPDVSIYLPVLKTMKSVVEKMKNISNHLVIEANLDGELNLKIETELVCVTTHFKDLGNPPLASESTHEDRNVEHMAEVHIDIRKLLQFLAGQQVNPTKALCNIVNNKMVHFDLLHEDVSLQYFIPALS
UniProt O75143: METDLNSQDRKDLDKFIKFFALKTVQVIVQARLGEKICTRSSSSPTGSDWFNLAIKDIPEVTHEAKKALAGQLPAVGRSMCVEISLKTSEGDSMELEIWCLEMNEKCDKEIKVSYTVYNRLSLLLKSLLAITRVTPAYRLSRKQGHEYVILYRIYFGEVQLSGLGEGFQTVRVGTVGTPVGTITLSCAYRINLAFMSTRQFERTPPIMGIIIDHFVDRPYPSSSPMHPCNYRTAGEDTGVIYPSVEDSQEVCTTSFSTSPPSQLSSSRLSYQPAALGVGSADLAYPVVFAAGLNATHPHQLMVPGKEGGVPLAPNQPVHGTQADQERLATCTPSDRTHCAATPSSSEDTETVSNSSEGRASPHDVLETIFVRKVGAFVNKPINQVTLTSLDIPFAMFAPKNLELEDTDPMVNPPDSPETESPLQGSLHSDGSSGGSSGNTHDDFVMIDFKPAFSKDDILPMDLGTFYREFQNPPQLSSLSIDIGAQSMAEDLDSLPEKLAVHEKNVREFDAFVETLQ
UniProt O43684, whole entry: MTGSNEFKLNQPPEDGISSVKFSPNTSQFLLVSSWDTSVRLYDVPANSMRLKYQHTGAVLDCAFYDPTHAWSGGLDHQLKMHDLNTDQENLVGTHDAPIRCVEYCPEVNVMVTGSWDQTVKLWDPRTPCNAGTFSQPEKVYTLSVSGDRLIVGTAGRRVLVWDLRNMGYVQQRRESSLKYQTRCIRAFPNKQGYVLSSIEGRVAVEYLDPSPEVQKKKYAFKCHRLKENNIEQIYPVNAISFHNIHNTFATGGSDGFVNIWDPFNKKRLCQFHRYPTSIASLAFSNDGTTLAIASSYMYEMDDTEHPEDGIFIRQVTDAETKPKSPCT
UniProt O43252: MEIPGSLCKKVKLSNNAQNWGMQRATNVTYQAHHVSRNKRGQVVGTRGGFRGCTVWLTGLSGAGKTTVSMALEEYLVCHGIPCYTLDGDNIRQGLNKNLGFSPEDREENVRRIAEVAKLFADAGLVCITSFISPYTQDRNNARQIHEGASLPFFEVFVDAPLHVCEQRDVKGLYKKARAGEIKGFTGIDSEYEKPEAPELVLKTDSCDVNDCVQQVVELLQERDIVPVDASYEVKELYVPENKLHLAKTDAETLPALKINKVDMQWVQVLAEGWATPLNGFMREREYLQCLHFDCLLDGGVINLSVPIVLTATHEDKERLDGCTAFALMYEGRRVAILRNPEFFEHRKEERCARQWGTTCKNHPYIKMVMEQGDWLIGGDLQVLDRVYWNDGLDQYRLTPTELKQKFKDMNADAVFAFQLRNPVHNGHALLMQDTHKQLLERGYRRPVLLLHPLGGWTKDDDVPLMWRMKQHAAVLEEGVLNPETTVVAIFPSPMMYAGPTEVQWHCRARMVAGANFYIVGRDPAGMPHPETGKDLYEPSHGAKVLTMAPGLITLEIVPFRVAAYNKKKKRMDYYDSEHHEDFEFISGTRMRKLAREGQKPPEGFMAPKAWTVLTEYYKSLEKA
UniProt O60613, whole entry: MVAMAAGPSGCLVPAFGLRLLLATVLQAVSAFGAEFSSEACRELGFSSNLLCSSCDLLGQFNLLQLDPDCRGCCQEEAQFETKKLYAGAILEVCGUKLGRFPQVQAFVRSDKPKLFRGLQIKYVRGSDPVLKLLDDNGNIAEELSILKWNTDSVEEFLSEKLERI
UniProt O43181, whole entry: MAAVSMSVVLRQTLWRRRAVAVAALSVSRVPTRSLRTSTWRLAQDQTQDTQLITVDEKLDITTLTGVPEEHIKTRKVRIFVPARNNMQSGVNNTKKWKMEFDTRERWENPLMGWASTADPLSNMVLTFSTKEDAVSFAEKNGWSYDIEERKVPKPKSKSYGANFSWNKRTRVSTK
UniProt O60336: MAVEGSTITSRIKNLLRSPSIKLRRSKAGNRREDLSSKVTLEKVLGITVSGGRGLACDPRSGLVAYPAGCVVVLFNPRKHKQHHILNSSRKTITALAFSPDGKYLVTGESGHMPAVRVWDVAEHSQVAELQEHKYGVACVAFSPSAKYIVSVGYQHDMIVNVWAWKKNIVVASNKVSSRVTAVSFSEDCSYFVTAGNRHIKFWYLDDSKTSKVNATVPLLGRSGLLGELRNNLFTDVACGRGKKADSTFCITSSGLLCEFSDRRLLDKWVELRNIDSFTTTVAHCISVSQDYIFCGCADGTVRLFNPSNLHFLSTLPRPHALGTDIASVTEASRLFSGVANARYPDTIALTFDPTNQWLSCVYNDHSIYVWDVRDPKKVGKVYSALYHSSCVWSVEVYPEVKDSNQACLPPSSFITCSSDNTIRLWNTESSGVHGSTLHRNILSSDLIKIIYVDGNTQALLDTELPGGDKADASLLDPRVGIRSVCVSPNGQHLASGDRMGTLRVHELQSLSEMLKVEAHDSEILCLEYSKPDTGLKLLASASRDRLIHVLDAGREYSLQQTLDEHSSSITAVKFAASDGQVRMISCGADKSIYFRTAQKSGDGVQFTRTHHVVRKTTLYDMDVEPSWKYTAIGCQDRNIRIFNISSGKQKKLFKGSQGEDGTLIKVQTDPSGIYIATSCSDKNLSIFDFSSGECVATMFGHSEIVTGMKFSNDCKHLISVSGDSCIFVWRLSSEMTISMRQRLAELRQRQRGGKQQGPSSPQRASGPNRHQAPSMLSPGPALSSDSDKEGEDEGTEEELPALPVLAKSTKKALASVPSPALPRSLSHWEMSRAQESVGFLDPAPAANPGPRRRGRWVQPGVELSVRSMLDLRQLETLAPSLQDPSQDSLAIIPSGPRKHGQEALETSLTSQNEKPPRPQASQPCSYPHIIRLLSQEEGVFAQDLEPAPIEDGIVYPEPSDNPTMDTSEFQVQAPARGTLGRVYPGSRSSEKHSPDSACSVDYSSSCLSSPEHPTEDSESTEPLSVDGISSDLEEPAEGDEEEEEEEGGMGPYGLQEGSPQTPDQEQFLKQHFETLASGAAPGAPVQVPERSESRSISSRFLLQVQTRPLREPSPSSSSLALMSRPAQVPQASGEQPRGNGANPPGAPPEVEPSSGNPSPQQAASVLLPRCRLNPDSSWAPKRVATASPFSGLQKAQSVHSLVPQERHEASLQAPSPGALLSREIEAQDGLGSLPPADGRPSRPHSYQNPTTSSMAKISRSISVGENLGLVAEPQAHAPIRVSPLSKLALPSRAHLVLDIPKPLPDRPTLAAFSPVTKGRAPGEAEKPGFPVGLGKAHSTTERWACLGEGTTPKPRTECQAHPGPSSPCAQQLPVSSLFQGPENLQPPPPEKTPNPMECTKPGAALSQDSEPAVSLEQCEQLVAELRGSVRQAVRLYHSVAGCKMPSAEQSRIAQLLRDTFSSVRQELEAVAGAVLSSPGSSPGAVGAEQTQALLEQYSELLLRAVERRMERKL
UniProt O60573: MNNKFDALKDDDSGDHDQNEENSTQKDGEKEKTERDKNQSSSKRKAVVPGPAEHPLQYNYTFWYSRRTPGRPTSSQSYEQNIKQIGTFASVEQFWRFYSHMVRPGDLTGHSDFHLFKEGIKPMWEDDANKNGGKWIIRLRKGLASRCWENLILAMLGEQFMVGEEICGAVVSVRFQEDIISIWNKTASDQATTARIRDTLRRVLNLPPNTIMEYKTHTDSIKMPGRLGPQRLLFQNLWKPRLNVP

Target	log2 fold change
HUS1 (peptide sequence: IVTHDIPIKVIPR, peptide start residue: 128) (UniProt O60921)	-0.482
UniProt O75143 (peptide sequence: EFDAFVETLQ, peptide start residue: 508)	-0.264
BUB3 (peptide sequence: VLVWDLR, peptide start residue: 159) (UniProt O43684)	-0.268
PAPSS1 (peptide sequence: TDAETLPALK, peptide start residue: 249) (UniProt O43252)	-0.322
UniProt O60613 (peptide sequence: LLDDNGNIAEELSILK, peptide start residue: 133)	0.267
UniProt O43504 (peptide sequence: HDGITVAVHK, peptide start residue: 79)	0.16
NDUFS4 (peptide sequence: NGWSYDIEER, peptide start residue: 141) (UniProt O43181)	0.141
UniProt O60336 (peptide sequence: KALASVPSPALPR, peptide start residue: 812)	0.795
EIF4E2 (peptide sequence: LLFQNLWKPR, peptide start residue: 232) (UniProt O60573)	-0.109
